According to US20050020687A1, “Methods of treating inflammatory and viral disorders by administering cyclopentenone compounds” (priority 1996, published 2005):
For at least one compound, name, drawing or mass did not settle the structure.

Test system: heat shock transcription factor (HSF)
Test: HSF activation by EMSA in Jurkat cells
Conditions: at the NF-κB IC90 concentration

SMILES	Activation of HSF
O=c1oc(Cl)c(Cl)c2ccccc12 [DCIC, 3,4-dichloro-iso-coumarine]	+
CC(=O)NC(Cc1ccccc1)C(=O)Oc1ccc2ccccc2c1 (racemic) [APNE, N-acethyl-DL-phenylalanine-β-napthylester]	+
